# Source: PubChem BioAssay AID1347426 (Functional Genomics Laboratory (NCATS/FGL), 2020)
# Out of some 31,000 sequences screened, about 1,400 (4.5%) were called active.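 How the source made its calls: active means median seed-adjusted z-score above 1 or below -1; inactive means the rest.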 This is one part of the list.
# Experiment: Novel Modifiers of Survival Motor Neuron (SMN) Protein: Gene Identification via Genome-wide siRNA Screen;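 further: luminescence tracks full-length SMN protein made from the SMN2 reporter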
# Details: HEK293T SMN2-luciferase reporter, siRNA knockdown, 72 h; actives lie on both sides
# Outline: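 HEK293T cells stably expressing an SMN2 splicing/cDNA-luciferase reporter were reverse-transfected with a druggable-genome siRNA library and read by luminescence at 72 hours; hits defined by MAD score above 1.0 or below -1.0.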
row,Sequence,median seed-adjusted z-score
1,GUACAUAGAGGAUAGUAUUTT against LPAR3,inactive: -0.3
2,GGGUCACACUAUUUCGUGUTT against ARIH1,inactive: -0.443
3,GCUGCUCGACUGAUCCAAATT against MME,inactive: 0.129
4,UCAACAUCAUGUAGACAAATT against AKAP1,inactive: 0.182
5,CCUCUUGUCUAUAAGGGAATT against GNPAT,inactive: 0.111
6,AUAUGCGUGUGGAAGACUATT against NDUFB8,inactive: -0.468
7,GGCAUUUCCGGUAUUAAAATT against HPCAL1,inactive: -0.00535
8,CGAAAUGUGGGACAUAUUUTT against MFSD9,inactive: 0.36
9,CAUGUUAAUUGUUAAGGAUTT against WFDC8,inactive: 0.0427
10,GAGCAGAUCUUUUUAUGCATT against ZNF664,active: 1.08
11,CACUCUCAGUUGUACGUAUTT against PTPRH,inactive: 0.175
12,ACCUUCUUCCCGACCCUCATT against PIM2,inactive: 0.00597
13,CUGCUACGGUAAUAACUCATT against ARSH,inactive: -0.0414
14,GAAGUAAACAUAUCAAGUUTT against PLGLB2,inactive: 0.234
15,CAAGAUUGAGAAUAUCAGATT against UCHL5,inactive: -0.358
16,UCAAUGAGGUGGUCCUAAATT against TOR3A,inactive: 0.225
17,GUCUCCUACUUUACCUAUATT against PCDHGA10,inactive: 0.0621
18,GUCUAUCAGGUGUUUGAAATT against COQ5,inactive: -0.0292
19,CAAAGUCCCUCAUCAGGAATT against SPRED1,inactive: 0.387
20,GGAUAUUACUGCAAUGUCUTT against ZMAT2,inactive: 0.104
21,GGGACGCGUUCAUAACUGUTT against CTSW,inactive: -0.342
22,GGCAAUAAAUCCUAUGUGATT against DHRS9,inactive: -0.0523

# Taken from above.
# GGCAUUUCCGGUAUUAAAATT against HPCAL1 | median seed-adjusted z-score: inactive: -0.00535
# CGAAAUGUGGGACAUAUUUTT against MFSD9 | median seed-adjusted z-score: inactive: 0.36

# Going on with the list.

row,Sequence,median seed-adjusted z-score
1,CAUCUACCCAAUACUGUUATT against MS4A1,inactive: 0.414
2,CUGGAAACAUUGUAUCGAATT against PPEF2,inactive: 0.354
3,CAGCGGCAAUGAUAUCAUUTT against CTNNA2,inactive: -0.0686
4,GCAGAGCGGGUUAAAAUGATT against DNAJC2,inactive: -0.0357
5,GCCUAAUCAUUAUGAUCUATT against TRAF6,inactive: 0.324
6,CAAUAUUGGAGCGAAUUAATT against AASS,inactive: -0.626
7,UCUGCUAACCUGAAAGUAATT against CARD8,inactive: 0.115
8,CAAGAACGUGUACAAGUUUTT against RPN2,inactive: -0.217
9,GAACCUUUCUAAUCCAGAATT against NKRF,inactive: -0.0368
10,GCUUUGACGGCGACAGUGATT against CCKBR,inactive: 0.314
11,CUACCUUACUUUAACAUUATT against KCNS3,inactive: 0.103
12,GAAGAUCGGCUUGAAAUUATT against EIF3H,inactive: 0.449
13,CCUUUAGUAGAAUCAGUUATT against ZNF791,inactive: 0.219
14,AUACCUGAACAGUCCCUCATT against NOBOX,inactive: -0.426
15,AGUUGUUCAAGUUCCGCAATT against CRTAC1,inactive: 0.113
16,GAGUAACUCGUGUCCCGAATT against KCNK18,inactive: 0.115
17,CGCAGAUGCCGAUUGCUUUTT against CASP6,inactive: 0.765
18,AGAACAACGUGAAGGCACATT against TNPO2,inactive: 0.0785
19,CAGAUGAGAUUAACACCAUTT against CRP,inactive: -0.212
20,GACUAAAGAUGUAUAAGCATT against PSMB1,inactive: -0.35
21,GGACGGUCAUUGAUUACAATT against P4HB,inactive: -0.0514
22,CAUUCAGCCCAACAAGAAATT against CYB5R1,inactive: 0

row,Sequence,median seed-adjusted z-score
1,CUCUGGUAGAAUCCAAUUATT against GIN1,inactive: -0.0585
2,CCCAAGGCCUGCUUAUUCATT against POLR2J2,inactive: 0.375
3,GAAUUUCCUUGUCUCGAAUTT against EPX,inactive: 0.159
4,GGUUGUUUUGGAAACCGAATT against NAT12,inactive: -0.0807
5,UCACAGAAGUUCACGCUGATT against INPPL1,inactive: 0.199
6,GGAGUUAUGUUGGGAUAAATT against TIMM8B,inactive: -0.853
7,CGUCCUCAUCGAGACUUCATT against D2HGDH,inactive: -0.637
8,GGUGACCGGUUACUUGGGATT against FFAR1,inactive: 0.248
9,GAGCAGCUUUGGAUAAUGATT against ZNF226,inactive: 0.437
10,GUACUAACUUGGUUAAGAATT against NAT12,inactive: -0.0807
11,AGGAUGACUUGUUCGCGGATT against RTN4RL2,inactive: -0.168
12,GAAAUGACCUUAUUAGUCATT against RYK,inactive: -0.446
13,CAACAUCCCUGAAUCUCCATT against CYP4A11,inactive: -0.762
14,GGAAAAGGCUCUUCCGGAATT against TRIM50,inactive: 0
15,GCGUGGACCCAAAUCAAUATT against KARS,inactive: -0.152
16,GCAAGGAGUAUAACAUGUATT against SKAP1,inactive: -0.00637
17,CAGUAUUUAUCGAGAUAAATT against SOX2,inactive: 0.0559
18,AGGAUCUAGUGGUCCAUAUTT against COL4A6,inactive: 0.0681
19,GUAUUAGAUUCCAAUGACATT against PCDHB9,inactive: 0.516
20,GGAUAUUACUUGCAAAGGATT against GTF2I,inactive: 0.379
21,GACUGGAUUUUGUGAUUCATT against GLULD1,inactive: -0.332
22,CAAAGACGAAUUUCAGCUATT against AES,inactive: -0.478

row,Sequence,median seed-adjusted z-score
1,CGAUGAUUGAGGUGCUAAATT against TTC13,inactive: 0.0363
2,CAGUAUUGCUACAAACCGATT against RBMS1,inactive: 0.798
3,AGAUGUGAAGCUCAAAUUATT against ETV7,inactive: -0.00772
4,GGUUUUUAUAGAGCACAAATT against BCL11B,inactive: 0.163
5,GGAAUUAGACGACAGAUCATT against EPPK1,inactive: 0.786
6,CCUAUGCUGUGCUCACGAATT against HLX,inactive: 0.379
7,AAGCCUCAUGGGAUCCUUATT against NPTXR,inactive: 0.0818
8,GGCUUGACAUUCUACGUUUTT against PPP1R3A,inactive: -0.241
9,CCAUCACCGUGCCCUACAATT against PURA,inactive: -0.0185
10,AACUGGAUGUGAAAACAAATT against VDAC2,inactive: 0.648
11,GGAUUCUGUAUUAUGGAUATT against TOP1,inactive: 0.0303
12,UCUCCCUCAUCUACACCAATT against GSTP1,inactive: -0.61
13,CGUGAUCAAUAGGAAAAUUTT against CCL8,inactive: 0.436
14,UCAUCAGCGUGGUCCAGAATT against ALOX5AP,inactive: -0.0169
15,GAAUUGUGCGGGAUUAUGATT against PCYT1A,inactive: 0.0429
16,GCAUGCUUCCAUUGCGAGATT against LASP1,inactive: -0.286
17,UGACCUACGAGGAAAUUCATT against PFKFB4,inactive: 0.149
18,CGAGGUUACCAACAUGCUUTT against PLA2G3,inactive: 0.543
19,GAAUUACCUUCAUAUCCUUTT against ZNF518A,inactive: -0.252
20,CGGAUGUUCUUUACACUAUTT against HNRNPL,active: 1.04
21,CGAACAGGCCUAUUCUCUATT against NDUFS2,inactive: -0.388
22,GCCCUAUUGCGAGAUGGUATT against PPM1K,inactive: 0.154

# Exported tab-delimited: entries from further up
row	Sequence	median seed-adjusted z-score
2	GGGUCACACUAUUUCGUGUTT against ARIH1	inactive: -0.443
17	GUCUCCUACUUUACCUAUATT against PCDHGA10	inactive: 0.0621
17	CGCAGAUGCCGAUUGCUUUTT against CASP6	inactive: 0.765
16	GCAAGGAGUAUAACAUGUATT against SKAP1	inactive: -0.00637
22	CAAAGACGAAUUUCAGCUATT against AES	inactive: -0.478
5	GGAAUUAGACGACAGAUCATT against EPPK1	inactive: 0.786

# Continued.

row,Sequence,median seed-adjusted z-score
1,GCCUGUUAAGGAUCUAACATT against PTPRB,inactive: -0.0981
2,CAGAAUCUAUUGUUAAUGATT against TMED10,inactive: 0.523
3,CAUCUAAACCGGAAGGUUUTT against KCNH5,inactive: -0.827
4,GAGCAAAGCCUGCAACAAATT against TAL2,inactive: -0.395
5,GAGACAAGCUUCAACCACATT against SERPINA5,active: -1.01
6,UGGUAUCUCCUCUAAGUAATT against IGFBP7,inactive: 0.116
7,CUCUUAUGGUAACCAAUGATT against CCT2,inactive: -0.0508
8,CCAAUGGAAACGGAACUAATT against MGAM,inactive: 0.312
9,CUGUCUACAUGAGCAGUAATT against CTSE,inactive: -0.1
10,GGUCUAGAGAUAGAUCAUUTT against NGLY1,inactive: -0.0453
11,GGAGCUGAGGAUAACUAUATT against MARS,inactive: -0.266
12,CCGUGGUGGUUGACGAUAATT against ADAMTS17,inactive: 0.257
13,CUAUAGGACUGGAUUUCUUTT against RAB28,inactive: 0.114
14,GGAUCACAUUCAUCCCUAUTT against GPRC6A,inactive: 0
15,GACUAAUGGAUGAAGCUAATT against PBK,inactive: -0.311
16,GAUUGGACCUAACAAUGGATT against NEIL3,inactive: 0.0736
17,CCAAUUCCAGGUUAACUUUTT against S100A7A,inactive: 0.212
18,GCUUCAUCGUAUGGAAGAATT against NTSR2,inactive: -0.125
19,GCUGCGUUCUGGUAUUUGATT against RAB7A,inactive: 0.169
